Source: paper PMC11405040, “PRMT5-mediated FUBP1 methylation accelerates prostate cancer progression” (The Journal of Clinical Investigation, 2024)
No constants are given. Whether binding was seen depends on the method and setting. Binding seen in cells or lysates may run through a third protein. Here binding means that the protein was enriched with, or labelled near, the bait; the list need not be complete.

Chains of the proteins cited; added tags and fusions are not shown.
UniProt Q96AE4: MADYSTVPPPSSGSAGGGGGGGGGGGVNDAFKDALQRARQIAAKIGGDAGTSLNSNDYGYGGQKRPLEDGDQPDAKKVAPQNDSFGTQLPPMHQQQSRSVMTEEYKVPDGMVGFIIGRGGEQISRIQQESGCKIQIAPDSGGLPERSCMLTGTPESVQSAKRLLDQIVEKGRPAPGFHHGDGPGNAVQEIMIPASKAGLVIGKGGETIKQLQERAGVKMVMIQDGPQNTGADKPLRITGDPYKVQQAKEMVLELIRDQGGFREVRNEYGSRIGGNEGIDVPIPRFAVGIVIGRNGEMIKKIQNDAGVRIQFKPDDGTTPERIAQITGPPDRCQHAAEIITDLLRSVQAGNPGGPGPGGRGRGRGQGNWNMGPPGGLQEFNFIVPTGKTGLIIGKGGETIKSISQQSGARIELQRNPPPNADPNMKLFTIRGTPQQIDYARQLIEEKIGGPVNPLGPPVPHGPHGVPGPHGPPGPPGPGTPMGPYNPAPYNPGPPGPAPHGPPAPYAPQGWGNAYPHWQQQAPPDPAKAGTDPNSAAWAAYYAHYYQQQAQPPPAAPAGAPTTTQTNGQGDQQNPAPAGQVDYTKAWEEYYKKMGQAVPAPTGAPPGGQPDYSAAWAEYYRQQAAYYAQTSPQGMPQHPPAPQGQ
UniProt Q9BQA1: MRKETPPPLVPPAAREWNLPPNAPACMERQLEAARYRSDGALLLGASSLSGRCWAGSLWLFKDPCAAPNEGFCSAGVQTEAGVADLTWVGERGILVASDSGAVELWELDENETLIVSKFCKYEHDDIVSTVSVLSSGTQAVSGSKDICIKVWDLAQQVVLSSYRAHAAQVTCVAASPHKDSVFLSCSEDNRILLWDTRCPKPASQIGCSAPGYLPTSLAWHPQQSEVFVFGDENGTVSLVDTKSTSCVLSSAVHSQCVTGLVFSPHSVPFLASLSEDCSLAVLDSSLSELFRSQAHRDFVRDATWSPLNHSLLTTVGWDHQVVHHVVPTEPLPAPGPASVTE
UniProt O14744: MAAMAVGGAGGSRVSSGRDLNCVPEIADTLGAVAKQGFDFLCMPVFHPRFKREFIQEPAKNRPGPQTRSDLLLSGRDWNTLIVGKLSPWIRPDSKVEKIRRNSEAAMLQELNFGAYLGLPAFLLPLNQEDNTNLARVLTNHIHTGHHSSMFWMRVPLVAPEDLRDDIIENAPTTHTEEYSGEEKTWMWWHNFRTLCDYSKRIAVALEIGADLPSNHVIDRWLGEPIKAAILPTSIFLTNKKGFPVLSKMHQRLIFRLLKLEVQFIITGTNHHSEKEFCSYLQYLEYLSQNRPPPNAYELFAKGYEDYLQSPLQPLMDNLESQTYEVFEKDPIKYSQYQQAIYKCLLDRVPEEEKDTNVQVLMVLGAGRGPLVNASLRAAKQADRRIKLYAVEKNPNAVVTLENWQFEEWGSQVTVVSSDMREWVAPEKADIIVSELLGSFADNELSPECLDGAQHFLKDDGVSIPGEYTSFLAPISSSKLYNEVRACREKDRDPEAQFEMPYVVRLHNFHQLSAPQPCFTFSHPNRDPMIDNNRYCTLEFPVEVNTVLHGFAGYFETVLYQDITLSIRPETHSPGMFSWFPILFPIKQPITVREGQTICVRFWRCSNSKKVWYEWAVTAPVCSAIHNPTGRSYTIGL

Biological target: FUBP1, bait of the immunoprecipitation-mass spectrometry (human) (UniProt Q96AE4)
Test: affinity purification with mass spectrometry; immunoprecipitation of FUBP1, in-gel digestion with trypsin and chymotrypsin, LC-MS/MS; cells not given

binding	Substance
binds	MEP50, found in the FUBP1 immunoprecipitate by mass spectrometry (from UniProt Q9BQA1 1-342)
binds	PRMT5, found in the FUBP1 immunoprecipitate by mass spectrometry (from UniProt O14744 1-637) (enzyme)
